Measured values as given in the supplement of paper PMC12067093, “Discovery and optimisation of a covalent ligand for TRIM25 and its application to targeted protein ubiquitination” (Chemical Science, 2025).
The list shows a part of the results.

Sequences of proteins named here, by UniProt entry; tags and fusion partners are left off. A change or cut given only in a name is not applied to a line headed by its entry.
UniProt P55769: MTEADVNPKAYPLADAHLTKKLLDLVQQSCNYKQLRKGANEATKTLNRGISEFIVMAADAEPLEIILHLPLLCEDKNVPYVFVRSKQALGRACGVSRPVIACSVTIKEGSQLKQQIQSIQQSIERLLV
UniProt Q02447: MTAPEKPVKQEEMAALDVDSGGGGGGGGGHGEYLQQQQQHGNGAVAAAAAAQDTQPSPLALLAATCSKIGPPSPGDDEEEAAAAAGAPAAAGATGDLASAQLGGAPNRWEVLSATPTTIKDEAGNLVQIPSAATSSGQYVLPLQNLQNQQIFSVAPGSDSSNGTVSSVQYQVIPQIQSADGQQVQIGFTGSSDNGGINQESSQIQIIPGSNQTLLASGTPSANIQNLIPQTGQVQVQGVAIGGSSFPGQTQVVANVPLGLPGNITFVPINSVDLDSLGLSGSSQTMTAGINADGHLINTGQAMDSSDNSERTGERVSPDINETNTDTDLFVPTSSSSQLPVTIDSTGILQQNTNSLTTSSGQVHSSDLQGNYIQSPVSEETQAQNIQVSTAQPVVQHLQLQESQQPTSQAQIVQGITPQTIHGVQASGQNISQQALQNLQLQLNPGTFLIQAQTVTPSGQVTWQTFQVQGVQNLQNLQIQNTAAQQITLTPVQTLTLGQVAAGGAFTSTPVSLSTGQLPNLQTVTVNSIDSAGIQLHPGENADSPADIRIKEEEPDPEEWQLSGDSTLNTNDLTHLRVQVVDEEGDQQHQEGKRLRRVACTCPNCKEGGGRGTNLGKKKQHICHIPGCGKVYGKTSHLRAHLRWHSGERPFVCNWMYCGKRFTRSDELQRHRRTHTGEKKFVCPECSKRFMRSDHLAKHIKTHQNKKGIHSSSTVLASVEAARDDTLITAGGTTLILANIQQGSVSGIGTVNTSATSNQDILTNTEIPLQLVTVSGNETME
UniProt P62316, whole entry, looked up: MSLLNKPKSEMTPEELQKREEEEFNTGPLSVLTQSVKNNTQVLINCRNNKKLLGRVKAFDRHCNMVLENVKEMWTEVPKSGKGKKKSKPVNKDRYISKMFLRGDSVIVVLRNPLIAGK
UniProt Q9BVQ7: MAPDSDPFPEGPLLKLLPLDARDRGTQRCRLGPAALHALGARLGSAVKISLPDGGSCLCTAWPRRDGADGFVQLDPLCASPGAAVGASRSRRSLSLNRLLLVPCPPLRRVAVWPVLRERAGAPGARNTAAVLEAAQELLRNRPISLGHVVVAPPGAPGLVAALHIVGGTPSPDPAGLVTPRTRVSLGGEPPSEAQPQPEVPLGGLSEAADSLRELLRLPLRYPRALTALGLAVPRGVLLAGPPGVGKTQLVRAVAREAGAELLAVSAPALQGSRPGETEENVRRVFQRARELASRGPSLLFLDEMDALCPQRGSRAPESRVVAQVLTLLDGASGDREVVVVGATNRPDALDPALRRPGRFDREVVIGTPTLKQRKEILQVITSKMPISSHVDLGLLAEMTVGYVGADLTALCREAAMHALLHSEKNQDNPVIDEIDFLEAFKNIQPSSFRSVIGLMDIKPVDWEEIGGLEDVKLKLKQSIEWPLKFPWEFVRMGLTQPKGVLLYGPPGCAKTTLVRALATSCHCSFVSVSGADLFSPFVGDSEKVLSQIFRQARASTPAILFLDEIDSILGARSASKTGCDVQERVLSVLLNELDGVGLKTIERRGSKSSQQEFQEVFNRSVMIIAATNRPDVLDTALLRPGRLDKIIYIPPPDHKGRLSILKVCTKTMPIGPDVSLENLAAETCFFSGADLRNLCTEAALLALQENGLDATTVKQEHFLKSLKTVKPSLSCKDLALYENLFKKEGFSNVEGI
UniProt O15269: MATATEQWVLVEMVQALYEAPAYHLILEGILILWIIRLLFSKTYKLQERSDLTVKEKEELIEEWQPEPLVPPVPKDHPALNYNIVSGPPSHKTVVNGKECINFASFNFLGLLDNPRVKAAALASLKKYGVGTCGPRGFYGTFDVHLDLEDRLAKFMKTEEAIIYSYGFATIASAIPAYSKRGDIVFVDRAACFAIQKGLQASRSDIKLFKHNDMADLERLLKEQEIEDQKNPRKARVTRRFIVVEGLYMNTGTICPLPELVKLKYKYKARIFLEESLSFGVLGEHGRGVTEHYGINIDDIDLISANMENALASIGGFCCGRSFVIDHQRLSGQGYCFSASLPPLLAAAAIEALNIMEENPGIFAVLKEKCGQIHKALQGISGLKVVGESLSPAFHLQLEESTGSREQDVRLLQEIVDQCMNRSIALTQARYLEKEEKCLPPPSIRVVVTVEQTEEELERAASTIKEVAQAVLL
UniProt Q01082, whole entry, looked up: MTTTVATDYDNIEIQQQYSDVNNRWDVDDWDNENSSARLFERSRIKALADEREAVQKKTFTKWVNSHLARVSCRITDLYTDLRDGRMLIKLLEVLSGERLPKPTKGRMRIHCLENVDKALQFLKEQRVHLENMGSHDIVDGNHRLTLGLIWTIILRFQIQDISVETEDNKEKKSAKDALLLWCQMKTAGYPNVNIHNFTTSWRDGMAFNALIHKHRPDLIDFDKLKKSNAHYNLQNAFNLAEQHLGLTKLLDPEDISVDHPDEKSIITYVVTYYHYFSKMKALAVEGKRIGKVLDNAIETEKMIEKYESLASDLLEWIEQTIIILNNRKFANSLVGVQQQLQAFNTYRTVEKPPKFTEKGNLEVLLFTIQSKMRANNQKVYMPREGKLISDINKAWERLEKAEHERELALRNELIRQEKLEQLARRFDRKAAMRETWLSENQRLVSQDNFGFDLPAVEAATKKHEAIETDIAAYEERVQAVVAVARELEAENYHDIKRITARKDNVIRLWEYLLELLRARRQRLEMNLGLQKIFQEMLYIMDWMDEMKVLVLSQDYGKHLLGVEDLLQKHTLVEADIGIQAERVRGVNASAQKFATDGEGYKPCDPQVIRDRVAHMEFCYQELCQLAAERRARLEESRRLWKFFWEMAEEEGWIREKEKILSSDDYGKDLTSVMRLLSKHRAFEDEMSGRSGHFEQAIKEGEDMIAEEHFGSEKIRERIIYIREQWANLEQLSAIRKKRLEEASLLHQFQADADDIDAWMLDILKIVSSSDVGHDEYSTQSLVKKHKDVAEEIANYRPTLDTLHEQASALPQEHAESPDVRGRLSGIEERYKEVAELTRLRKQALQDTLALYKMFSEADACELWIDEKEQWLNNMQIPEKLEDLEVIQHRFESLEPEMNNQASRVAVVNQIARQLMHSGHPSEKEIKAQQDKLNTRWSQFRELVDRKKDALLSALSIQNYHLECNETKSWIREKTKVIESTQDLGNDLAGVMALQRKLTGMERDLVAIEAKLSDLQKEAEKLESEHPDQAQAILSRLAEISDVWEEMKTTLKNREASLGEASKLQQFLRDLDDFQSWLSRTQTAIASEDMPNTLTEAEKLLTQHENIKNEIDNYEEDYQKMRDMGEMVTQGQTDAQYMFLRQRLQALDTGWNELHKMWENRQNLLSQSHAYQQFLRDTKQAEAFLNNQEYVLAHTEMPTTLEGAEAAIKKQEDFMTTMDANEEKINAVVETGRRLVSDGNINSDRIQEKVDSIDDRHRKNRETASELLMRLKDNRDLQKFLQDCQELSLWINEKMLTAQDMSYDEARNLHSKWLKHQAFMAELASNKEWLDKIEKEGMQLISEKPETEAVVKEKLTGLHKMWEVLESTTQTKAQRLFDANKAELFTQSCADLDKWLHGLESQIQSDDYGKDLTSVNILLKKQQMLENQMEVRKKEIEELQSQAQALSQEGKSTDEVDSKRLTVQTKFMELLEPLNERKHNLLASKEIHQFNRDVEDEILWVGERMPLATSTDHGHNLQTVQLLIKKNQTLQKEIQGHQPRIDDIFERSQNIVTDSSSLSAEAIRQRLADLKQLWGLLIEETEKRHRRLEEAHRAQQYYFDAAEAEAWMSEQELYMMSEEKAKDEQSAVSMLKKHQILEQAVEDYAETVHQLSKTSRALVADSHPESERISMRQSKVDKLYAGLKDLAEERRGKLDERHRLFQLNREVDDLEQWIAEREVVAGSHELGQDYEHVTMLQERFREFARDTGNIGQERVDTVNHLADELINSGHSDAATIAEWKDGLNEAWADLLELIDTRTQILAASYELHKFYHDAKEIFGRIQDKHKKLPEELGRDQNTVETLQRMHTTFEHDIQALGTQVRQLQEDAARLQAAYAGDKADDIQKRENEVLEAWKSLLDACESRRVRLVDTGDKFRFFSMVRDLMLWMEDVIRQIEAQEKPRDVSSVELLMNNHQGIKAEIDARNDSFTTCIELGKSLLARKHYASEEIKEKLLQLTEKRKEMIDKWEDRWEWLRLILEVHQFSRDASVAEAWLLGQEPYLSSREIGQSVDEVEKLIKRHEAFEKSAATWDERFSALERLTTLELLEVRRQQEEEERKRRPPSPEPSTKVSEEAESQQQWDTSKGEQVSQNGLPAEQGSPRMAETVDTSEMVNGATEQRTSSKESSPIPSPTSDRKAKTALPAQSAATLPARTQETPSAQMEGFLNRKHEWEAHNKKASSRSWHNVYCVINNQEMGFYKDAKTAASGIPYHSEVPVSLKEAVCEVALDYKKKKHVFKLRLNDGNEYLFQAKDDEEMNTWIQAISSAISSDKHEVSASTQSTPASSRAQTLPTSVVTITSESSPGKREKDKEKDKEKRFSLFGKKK
UniProt O60504: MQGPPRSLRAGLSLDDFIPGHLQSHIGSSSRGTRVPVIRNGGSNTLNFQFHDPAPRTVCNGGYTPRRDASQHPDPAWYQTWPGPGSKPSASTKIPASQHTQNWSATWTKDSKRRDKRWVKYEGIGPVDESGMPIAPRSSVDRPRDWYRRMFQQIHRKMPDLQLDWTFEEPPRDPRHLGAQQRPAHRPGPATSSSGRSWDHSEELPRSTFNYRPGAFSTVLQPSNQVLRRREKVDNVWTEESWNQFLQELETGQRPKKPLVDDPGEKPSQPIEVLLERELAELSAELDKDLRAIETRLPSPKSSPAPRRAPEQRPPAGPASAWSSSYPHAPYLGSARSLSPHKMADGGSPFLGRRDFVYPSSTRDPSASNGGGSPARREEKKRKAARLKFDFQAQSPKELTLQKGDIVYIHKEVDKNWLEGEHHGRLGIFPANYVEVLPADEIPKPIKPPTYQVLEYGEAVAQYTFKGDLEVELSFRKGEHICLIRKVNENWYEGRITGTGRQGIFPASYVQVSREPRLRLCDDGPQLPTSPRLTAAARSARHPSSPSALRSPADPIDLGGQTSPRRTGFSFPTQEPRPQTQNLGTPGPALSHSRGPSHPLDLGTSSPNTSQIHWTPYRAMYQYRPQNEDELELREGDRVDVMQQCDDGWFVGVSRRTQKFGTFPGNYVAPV
UniProt Q5T280: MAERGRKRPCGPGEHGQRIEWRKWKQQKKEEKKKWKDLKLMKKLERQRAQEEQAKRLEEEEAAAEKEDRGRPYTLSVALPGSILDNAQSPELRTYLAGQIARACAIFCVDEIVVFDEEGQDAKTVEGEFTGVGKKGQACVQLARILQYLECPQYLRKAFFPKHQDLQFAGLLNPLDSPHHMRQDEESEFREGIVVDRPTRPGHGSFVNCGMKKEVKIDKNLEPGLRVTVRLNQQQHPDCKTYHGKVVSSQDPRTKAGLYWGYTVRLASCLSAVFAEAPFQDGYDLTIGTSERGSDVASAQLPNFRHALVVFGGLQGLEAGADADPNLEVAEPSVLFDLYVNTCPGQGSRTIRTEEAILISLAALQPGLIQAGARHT
UniProt Q8NB90: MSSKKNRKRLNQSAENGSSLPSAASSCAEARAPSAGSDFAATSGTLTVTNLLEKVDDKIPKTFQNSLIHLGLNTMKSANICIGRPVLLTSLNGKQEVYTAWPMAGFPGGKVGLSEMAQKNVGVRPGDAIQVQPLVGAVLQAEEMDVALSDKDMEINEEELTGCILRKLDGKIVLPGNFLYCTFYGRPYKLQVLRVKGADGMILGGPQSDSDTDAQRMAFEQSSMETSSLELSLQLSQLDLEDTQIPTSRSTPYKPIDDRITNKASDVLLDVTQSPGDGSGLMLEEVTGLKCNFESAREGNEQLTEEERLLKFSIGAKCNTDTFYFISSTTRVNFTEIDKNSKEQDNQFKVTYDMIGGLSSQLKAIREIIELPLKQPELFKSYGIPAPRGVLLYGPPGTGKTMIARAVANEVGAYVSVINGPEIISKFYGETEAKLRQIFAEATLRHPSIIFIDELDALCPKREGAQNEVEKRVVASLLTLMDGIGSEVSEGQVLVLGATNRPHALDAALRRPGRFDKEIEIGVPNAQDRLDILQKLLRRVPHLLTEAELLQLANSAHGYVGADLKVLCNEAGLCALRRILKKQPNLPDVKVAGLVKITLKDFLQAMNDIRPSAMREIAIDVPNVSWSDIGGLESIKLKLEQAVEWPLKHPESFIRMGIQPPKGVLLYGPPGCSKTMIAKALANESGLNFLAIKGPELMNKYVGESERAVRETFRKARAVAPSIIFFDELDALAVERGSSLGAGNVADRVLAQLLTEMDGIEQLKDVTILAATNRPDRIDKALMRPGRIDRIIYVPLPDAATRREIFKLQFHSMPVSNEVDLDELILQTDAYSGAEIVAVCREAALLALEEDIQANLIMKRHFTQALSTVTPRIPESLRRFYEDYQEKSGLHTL

Compound: CC1Cc2ccccc2N1C(=O)C1CCCN(C1)C(=O)CCl (mixture of isomers) [TRIM25 ligand 11 (diastereomer mixture)]
Test: probe-labelled cysteine peptide fold change vs DMSO (competition) (log2 fold change); higher = less target engagement (more negative = stronger competition)
Conditions: THP-1, incubation time: 4 h
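Note: competitive chemoproteomic profiling in live THP-1 cells with an iodoacetamide desthiobiotin (IA-DTB) probe, comparing probe-labelled peptide intensities in compound-treated cells against DMSO-treated controls.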

| Target | probe-labelled cysteine peptide fold change (10 µM) | probe-labelled cysteine peptide fold change (50 µM) |
| --- | --- | --- |
| SNU13_P55769_93_ACGVSRPVIACSVTIK (UniProt P55769) | -0.0619 | -0.0764 |
| SP3_Q02447_683_KFVCPECSK (UniProt Q02447) | 0.0895 | 0.174 |
| SP140L_Q9H930_191_KESDQACGK (UniProt Q9H930) | -0.121 | -0.23 |
| SNRPC_P09234_25_KTHCSGR (UniProt P09234) | -0.332 | -0.766 |
| SPATS2L_Q9NUQ6_185_SDGLQWSAEQPCNPSKPK (UniProt Q9NUQ6) | -0.0644 | -0.218 |
| SNRPD2_P62316_46_NNTQVLINCR (UniProt P62316) | -0.0881 | 0.0337 |
| SP100_P23497_309_VECQAQAR (UniProt P23497) | -0.044 | -0.254 |
| SNRPB_P14678_43+45_HMNLILCDCDEFRK (UniProt P14678) | -0.0283 | -0.00106 |
| SPATA5L1_Q9BVQ7_685_TMPIGPDVSLENLAAETCFFSGADLR (UniProt Q9BVQ7) | 0.256 | 0.164 |
| SNRPB_P14678_43+45_HMNLILCDCDEFR (UniProt P14678) | 0.0226 | 0.125 |
| SRC_P12931_241_HADGLCHR (UniProt P12931) | 0.0892 | 0.199 |
| SNU13_P55769_102_PVIACSVTIK (UniProt P55769) | -0.0974 | 0.132 |
| SRM_P19623_25_ETCSLWPGQALSLQVEQLLHHRR (UniProt P19623) | -0.145 | -0.0529 |
| SNRPD2_P62316_63_HCNMVLENVK (UniProt P62316) | -0.117 | -0.0606 |
| SPTLC1_O15269_255_FIVVEGLYMNTGTICPLPELVK (UniProt O15269) | 0.0161 | -0.0323 |
| SNX27_Q96L92_456_LHACTEEGQLENQVIAFEWDEMQR (UniProt Q96L92) | 0.194 | 0.0672 |
| SORL1_Q92673_643_LWSPSDERGNECLLGHK (UniProt Q92673) | -0.146 | -0.0525 |
| SNRPB_P14678_19_CILQDGR (UniProt P14678) | 0.00174 | 0.144 |
| SPTBN1_Q01082_624_VAHMEFCYQELCQLAAER (UniProt Q01082) | 0.0414 | 0.146 |
| SORBS3_O60504_482_GEHICLIR (UniProt O60504) | 0.12 | 0.166 |
| SNX27_Q96L92_432+434_TCEGYNEIIFPHCACDSR (UniProt Q96L92) | 0.835 | 0.695 |
| SPOUT1_Q5T280_10_KRPCGPGEHGQR (UniProt Q5T280) | -0.0193 | -0.194 |

Individual results from above.
probe-labelled cysteine peptide fold change (10 µM), SPOUT1_Q5T280_10_KRPCGPGEHGQR (UniProt Q5T280) is entered as -0.0193
probe-labelled cysteine peptide fold change (10 µM), SNRPB_P14678_43+45_HMNLILCDCDEFR (UniProt P14678) is entered as 0.0226
probe-labelled cysteine peptide fold change (50 µM), SPATA5L1_Q9BVQ7_685_TMPIGPDVSLENLAAETCFFSGADLR (UniProt Q9BVQ7) is entered as 0.164
probe-labelled cysteine peptide fold change (10 µM), SNX27_Q96L92_456_LHACTEEGQLENQVIAFEWDEMQR (UniProt Q96L92) is entered as 0.194

The list goes on:

| Target | probe-labelled cysteine peptide fold change (10 µM) | probe-labelled cysteine peptide fold change (50 µM) |
| --- | --- | --- |
| SRP72_O76094_179_VVPENLGLQEGTHELCYNTACALIGQGQLNQAMK (UniProt O76094) | 0.0902 | 0.192 |
| SNX6_Q9UNH7_347+348_DVLQAETSQQLCCQK (UniProt Q9UNH7) | 0.0531 | -0.03 |
| SPATA5_Q8NB90_459_HPSIIFIDELDALCPK (UniProt Q8NB90) | -0.0102 | -0.321 |
| SPTBN1_Q01082_1900_SLLDACESR (UniProt Q01082) | 0.0137 | 0.0605 |
| SREK1_Q8WXA9-2_96_ALIVVPCAEGK (UniProt Q8WXA9) | 0.0684 | -0.217 |
| SPAG5_Q96R06_704_VLEQVSAQLEECK (UniProt Q96R06) | -0.0111 | -0.0065 |
| SPATA5_Q8NB90_81_SANICIGRPVLLTSLNGK (UniProt Q8NB90) | -0.313 | -0.172 |
| SP1_P08047_606_EACTCPYCK (UniProt P08047) | 0.0603 | 0.121 |
| SRBD1_Q8N5C6_397_RHVCIQSSLAK (UniProt Q8N5C6) | 0.0842 | -0.057 |
| SNRPF_P62306_66_CNNVLYIR (UniProt P62306) | 0.0532 | 0.0213 |
| SNUPN_O95149_356_GSSHSPDHPGCLMEN (UniProt O95149) | 0.0268 | -0.656 |
| SRCAP_Q6ZRS2_141_GHWDYLCEEMQWLSADFAQER (UniProt Q6ZRS2) | 0.208 | -0.00654 |
| SOD1_P00441_112_HVGDLGNVTADKDGVADVSIEDSVISLSGDHCIIGR (UniProt P00441) | -0.17 | -0.19 |
| SQOR_Q9Y6N5_201_CAGAPQK (UniProt Q9Y6N5) | -0.0709 | -0.0121 |
| SPCS2_Q15005_17+26_SGGSGGCSGAGGASNCGTGSGR (UniProt Q15005) | -0.266 | -0.603 |
| SPTLC1_O15269_192_AACFAIQK (UniProt O15269) | 0.0936 | -0.0125 |
| SPC24_Q8NBT2_155_IEWDYECEPGMVK (UniProt Q8NBT2) | -0.149 | -0.116 |
| SP3_Q02447_602_VACTCPNCK (UniProt Q02447) | -0.113 | -0.0153 |
| SNW1_Q13573_250_IPPCISNWK (UniProt Q13573) | -0.0831 | -0.131 |
| SNX2_O60749_332_LHVSVEALVCHR (UniProt O60749) | 0.0656 | -0.105 |
| SREBF1_P36956_932_ALLGCAK (UniProt P36956) | -0.00564 | 0.0554 |
